The values that follow come from article PMC12548414.

About 20 (1%) of roughly 1,600 compounds showed an effect of 50% or more. The list shows a part of the results.

The experiment concerns T1, E. coli pLC1021 (luc-trpAt trans-translation reporter).
T1 construct: pLC1021 luc-trpAt reporter strain
More on the design: species or system Escherichia coli pLC1021; luc-trpAt non-stop luciferase reporter; luminescence rises when trans-translation is inhibited; normalized to KKL-35 and DMSO. The note with it: reporter signal, KKL-35 = 100%; rise means trans-translation inhibition; 2 h, 20 µM. In outline:
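Cells carrying the non-stop luc-trpAt reporter were exposed to 20 µM compound for 2 h at room temperature, then Bright-Glo was added and luminescence read at 560 nm after 10 min. Signals were normalised per plate to DMSO and 20 µM KKL-35 wells. Hits: activity one SD above the median; ≥2 biological repeats averaged.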
As for `OCCN1CCN(c2nc(-c3ccccc3)nc3c2oc2ccccc23)CC1` [KKL-0954], the “% activation” value is 12%.
Then `CCCCCCCCCCn1c2c(c(=N)c3c1CCC3)CCC2` [KKL-0884], with 12%; and `C=CCn1c(Sc2ccc(C(F)(F)F)cc2[N+](=O)[O-])nnc1-c1ccccc1Cl` [KKL-1285], with 5%.
In the case of `Cc1oc(-c2cccs2)nc1CN1CCc2c([nH]c3ccccc23)C1c1ccccn1` (stereo not shown) [KKL-0484], the “% activation” value is listed as 6%.
With `Clc1ccc(OCCCCn2ccnc2)cc1Cl` [KKL-1382] the figure was 7%; with `CCCn1c(CNc2ccccc2O)nc2ccccc21` [KKL-1474], 0%.
Then `O=C(CCCSc1nnc(SCCCC(=O)c2ccc(F)cc2)s1)c1ccc(F)cc1` [KKL-1094], with 2%; and `CCOC(=O)N1CCN(CCC(=O)c2ccc(Cl)cc2)CC1` [KKL-1065], with 0%; and `CCn1nnc(NC(=O)COc2ccc(C3CCCCC3)cc2)n1` [KKL-0733], with 8%.
For the compound `Cn1cc(CNCc2ccc3c(c2)OCO3)c(-c2ccc(C3CCCCC3)cc2)n1` [KKL-0640], the “% activation” value came to 0%.
Turning to `c1cnc2c(c1)ccc1cccnc12` [KKL-0825], the “% activation” value is 8%.
Then `COc1ccc(C(C)(C)C)cc1N=C(S)Nc1ccc(Cl)c(Cl)c1` [KKL-1535], with 0%; and `COc1ccc(C(=O)Oc2cccc3cccnc23)cc1[N+](=O)[O-]` [KKL-1648], with 0%.
In the case of `COc1ccccc1NC(=O)CSc1nc2cc3ccccc3cc2[nH]1` [KKL-0600], the “% activation” value is listed as 1%.
With `O=C(NCc1cnn(-c2cccc(F)c2)c1)c1cc(COc2cccc3cccnc23)on1` [KKL-0634] the figure was 2%.
In the case of `CCOC(=O)CSc1ccc(-c2nc3ccccc3[nH]2)cn1` [KKL-1646], the “% activation” value was determined as 0%.
Then `CC(C)(C)/C(O)=C\C=Nc1ccccc1O` [KKL-0979], with 0%; and `O=C(Oc1ccc(F)cc1)c1ccc(Oc2ccc([N+](=O)[O-])cc2)cc1` [KKL-0916], with 0%; and `Clc1ccc(SCCCn2ccnc2)cc1` [KKL-1316], with 1%.
Then `COc1ccc(-n2cc(CNCCCn3ccnc3)c(-c3cccc(F)c3)n2)cc1` [KKL-1129], with 2%.
Regarding `Clc1ccc(COC(Cn2ccnc2)c2ccc(Cl)cc2Cl)c(Cl)c1` (stereo not shown) [KKL-0381], the “% activation” value is listed as 0%.
Then `Nc1ncnc(Oc2cccc3cccnc23)c1[N+](=O)[O-]` [KKL-0353], with 0%.
Regarding `O=C(NCc1nnc2c3ccccc3c(-c3ccccc3)nn12)c1ccc(Cl)cc1` [KKL-0873], the “% activation” value was 0%.
With `CCCCS(=O)(=O)Nc1ccc2cnn(C)c2c1` [KKL-1802] the figure was 0%; with `Clc1nnc(N2CCCC2)c2ccccc12` [KKL-1738], 0%; with `CCc1nnc(NC(=O)c2cc3ccccc3oc2=O)s1` [KKL-1658], 0%.
With `OC(CN1CCC2(CC1)CC(O)c1cc(Cl)ccc1O2)c1ccc2c(c1)CCC2` (stereo not shown) [KKL-0706] the figure was 1%; with `COc1ccc(F)c(-c2nc(CN3CCN(c4ncc5ccccc5n4)CC3)c(C)o2)c1` [KKL-0478], 3%; with `Cc1cc(N2CCCCC2)nc(N2CCC(O)(Cc3ccccc3)CC2)n1` [KKL-1214], 9%.
With `Cc1ccccc1OCc1n(CC(=O)OC2CC(C)CCC2C(C)C)c2ccccc2[n+]1C` (stereo not shown) [KKL-0845] the figure was 0%; with `Cc1ccc(-n2cc(CN3CCN(C(=O)c4ccco4)CC3)c(-c3ccc(F)cc3)n2)cc1` [KKL-1162], 0%.
In the case of `Clc1cc(Br)ccc1OCCCCn1ccnc1` [KKL-1286], the “% activation” value is reported as 0%.
Consider `Cc1cc([N+](=O)[O-])ccc1NC(=O)CN1C2CCC1CC(NC(=O)NC13CC4CC(CC(C4)C1)C3)C2` (stereo not shown) [KKL-1619], for which the “% activation” value was found to be 0%.
`Cc1ccc(-c2ccc(/C=C/C(=O)c3ccco3)o2)cc1` [KKL-0778]: the “% activation” value worked out at 0%.
With `COc1cc(NC(=O)C(Cl)Cl)c(OC)cc1Cl` [KKL-0757] the figure was 0%; with `O=C(Nc1ccc(N2CCN(C(=O)c3ccccc3)CC2)cc1)c1ccc([N+](=O)[O-])o1` [KKL-0631], 0%; with `CCCn1nnnc1NC(=O)c1cccs1` [KKL-1240], 13%.
With `CC1CCc2nc3sc4c(c3c(N)c2C1)CCCC4` (stereo not shown) [KKL-1424] the figure was 0%; with `COc1ccc(N2CCN(Cc3nc(N)nc(Nc4ccc(C)c(Cl)c4)n3)CC2)cc1` [KKL-1030], 7%; with `O=C(Nc1cccc(-c2ccco2)c1)C1CCN(C2Cc3ccccc3C2)CC1` [KKL-0457], 0%.
Then `Brc1ccc(C2C=C(c3ccccc3)Nc3ncnn32)cc1` (stereo not shown) [KKL-1205], with 1%; and `c1cc(C2CCCCC2)ccc1-c1cnnc(N2CCOCC2)n1` [KKL-1120], with 0%; and `O=C(Oc1ccc(Cl)c2cccnc12)C12CC3CC(CC(C3)C1)C2` [KKL-0981], with 8%.
As for `COc1cccc(OCC(=O)c2ccc(Br)cc2)c1` [KKL-0975], the “% activation” value is listed as 0%.
On to `O=C(Nc1nc2c(F)cc(F)cc2s1)c1ccccn1` [KKL-0924], for which the “% activation” value is reported as 0%.
With `Brc1ccc(Nc2nc(-c3ccccn3)cs2)cc1` [KKL-1367] the figure was 0%.
Then `CCCN=C1C(=O)c2ccccc2C(O)=C1N(C(C)=O)c1cccc(F)c1` [KKL-0978], with 0%; and `CCn1c(NC(=O)c2ccccc2)nc2ccccc21` [KKL-0359], with 6%.
With `CCOC(=O)c1ccc2ncc(C(=O)OCC)c(NCc3cccnc3)c2c1` [KKL-0536] the figure was 0%; with `Nc1cc(OCc2ccccc2)ccc1Nc1ccccc1` [KKL-1718], 0%.
Consider `O=C(Nc1nc(-c2ccccn2)cs1)c1cncn1-c1ccccc1` [KKL-1881], for which the “% activation” value is reported as 5%.
Then `CCc1cc(I)ccc1NC(=O)c1ccc([N+](=O)[O-])o1` [KKL-1553], with 0%.
Then `CCCCOC(=O)COc1ccc2c(=O)c(Oc3ccc(OCC)cc3)c(C)oc2c1` [KKL-0777], with 11%; and `FC(F)(F)c1cccc(-n2cc(-c3ccccc3)c3c(NCc4cccnc4)ncnc32)c1` [KKL-1573], with 0%; and `O=C(NCc1ccc2c(c1)OCO2)c1c(C(F)(F)F)nc2ccccn12` [KKL-1769], with 0%.
With `CC(C)(C)c1ccc(-c2nc(NCc3cccnc3)c3ccccc3n2)cc1` [KKL-0355] the figure was 1%; with `COC(=O)CSc1nnc(-c2ccc(Cl)cc2)o1` [KKL-0598], 0%.
Turning to `CC1(C)NC(N)=NC(=N)N1OCCCOc1ccc(Cl)cc1Cl` [KKL-1743], the “% activation” value is reported as 18%.
Turning to `Cc1cccc(C(=O)NC(=S)N2CCC(C)CC2)c1` [KKL-1430], the “% activation” value is reported as 0%.
In the case of `Cc1ccnc(N2C(=O)c3cccc4c([N+](=O)[O-])ccc(c34)C2=O)c1` [KKL-1403], the “% activation” value worked out at 0%.
With `Cc1ccc(-n2cc(CN(C)CCn3ccnc3)c(-c3cccc(C)c3)n2)cc1` [KKL-0351], the “% activation” value is listed as 0%.
Then `COc1ccc(-c2cnnc(NCC(C)Oc3cccnc3)n2)c(OC)c1` (stereo not shown) [KKL-0520], with 3%; and `CCc1sc(NC(=O)c2cnc(SC)nc2)nc1-c1ccc(F)cc1` [KKL-0670], with 5%; and `C=CCN1C(=N)S/C(=C2\C(=O)Nc3ccccc32)C1=O` [KKL-0768], with 1%.
With `CSc1ccc(NC(=O)N2CCC(CO)(CCOc3ccccc3)CC2)cc1` [KKL-0652] the figure was 3%; with `O=S(=O)(Nc1cc(Sc2cccc3cccnc23)c(O)c2ccccc12)c1ccccc1` [KKL-1539], 0%.
As to `O=C(/C=C/c1cccc(C(F)(F)F)c1)Nc1cccc(Br)c1` [KKL-1494], the “% activation” value was 0%.
As to `CCOc1cccc(N2C(=O)CC(SC(=N)NN=C(C)c3ccc(Cl)s3)C2=O)c1` (stereo not shown) [KKL-1503], the “% activation” value worked out at 1%.
Then `COc1ccc(-c2nnc(SCC(=O)Nc3cc(C)on3)o2)cc1` [KKL-0807], with 0%.
Then `Cc1nc2c(-c3ccc(Cl)cc3)c(C)nn2c(O)c1Cc1ccccc1` [KKL-0883], with 0%.
Then `CCOCCOC(=O)COc1ccc2c(-c3ccccc3)cc(=O)oc2c1` [KKL-1109], with 3%; and `Cc1ccc(C(=O)NC(=S)N(C)Cc2ccccc2)cc1` [KKL-1452], with 2%; and `CCOC(=O)C1=C(NC(=O)Nc2ccc(Cl)c(Cl)c2)Nc2ccccc2N=C1CC` [KKL-0821], with 0%.
With `c1ccc(-c2nnc(Sc3ccnc(N4CCN(c5ccncc5)CC4)n3)n2CCCN2CCOCC2)nc1` [KKL-1731], the “% activation” value is reported as 4%.
Then `CC(=O)C1=C(C)NC(SCC(=O)c2ccc(Cl)c(Cl)c2)=C(C#N)C1c1ccco1` (stereo not shown) [KKL-1059], with 2%.
Then `O=C(OCC#CCSc1nnc(-c2ccccc2)o1)c1ccco1` [KKL-1631], with 4%; and `CCOC(=O)COc1ccc(S(=O)(=O)Nc2cccc(Cl)c2C)cc1` [KKL-0774], with 3%.
Then `c1cnc(N2CCN(c3nncc(-c4ccc(C5CCCCC5)cc4)n3)CC2)cn1` [KKL-0667], with 0%; and `C/C=C/c1ccc(OCC(=O)OCc2csc(Nc3ccc(C)cc3)n2)c(OC)c1` [KKL-0820], with 0%.
Take `CN1CCC(O)(c2cccs2)C(C(=O)c2cccs2)C1` (stereo not shown) [KKL-0578]: the “% activation” value is 3%.
Then `CC(=NNc1nc(C)c(C)s1)c1ccc(Br)cc1` [KKL-0422], with 0%; and `CCCCc1ccc(NC(=O)c2cc3cc(Br)cc(OC)c3oc2=O)cc1` [KKL-1446], with 8%; and `Cc1cccc(NC(=O)c2ccc([N+](=O)[O-])o2)c1` [KKL-1080], with 0%.
With `CSc1ncc(C(=O)N2CCc3c([nH]c4ccc(Cl)cc34)C2)cn1` [KKL-0555] the figure was 0%.
On to `Cc1ccc(C(=O)Nc2ccc([N+](=O)[O-])cc2C)cc1I` [KKL-1273], for which the “% activation” value came to 0%.
Then `Cc1oc(-c2ccc3ccccc3c2)nc1CN1CCN(c2cnccn2)CC1` [KKL-0659], with 0%.
On to `O=C(CN1CCN(Cc2ccccc2)CC1)Nc1ccc([N+](=O)[O-])cc1C(=O)c1ccccc1` [KKL-1480], for which the “% activation” value was 0%.
Then `N#Cc1ccc(/C=C/C(=O)c2cccnc2)cc1` [KKL-0392], with 0%.
